Patent publication US20060234942A1, “Use of at least one $g(a)62 casein peptide with angiotensin i converting enzyme inhibiting activity for preparing medicines, food products and food complements” (priority 2002, published 2006)
At least one read-out could not be matched to a standard name with certainty. Marks after values point to notes of the source that are not given here. Residues, ends and D or L forms follow the SMILES beside them.

Protein sequences, listed by entry. Tags and fused reporters are not part of them. Residues count along the entry.
UniProt P12821, 30-1306, species assumed: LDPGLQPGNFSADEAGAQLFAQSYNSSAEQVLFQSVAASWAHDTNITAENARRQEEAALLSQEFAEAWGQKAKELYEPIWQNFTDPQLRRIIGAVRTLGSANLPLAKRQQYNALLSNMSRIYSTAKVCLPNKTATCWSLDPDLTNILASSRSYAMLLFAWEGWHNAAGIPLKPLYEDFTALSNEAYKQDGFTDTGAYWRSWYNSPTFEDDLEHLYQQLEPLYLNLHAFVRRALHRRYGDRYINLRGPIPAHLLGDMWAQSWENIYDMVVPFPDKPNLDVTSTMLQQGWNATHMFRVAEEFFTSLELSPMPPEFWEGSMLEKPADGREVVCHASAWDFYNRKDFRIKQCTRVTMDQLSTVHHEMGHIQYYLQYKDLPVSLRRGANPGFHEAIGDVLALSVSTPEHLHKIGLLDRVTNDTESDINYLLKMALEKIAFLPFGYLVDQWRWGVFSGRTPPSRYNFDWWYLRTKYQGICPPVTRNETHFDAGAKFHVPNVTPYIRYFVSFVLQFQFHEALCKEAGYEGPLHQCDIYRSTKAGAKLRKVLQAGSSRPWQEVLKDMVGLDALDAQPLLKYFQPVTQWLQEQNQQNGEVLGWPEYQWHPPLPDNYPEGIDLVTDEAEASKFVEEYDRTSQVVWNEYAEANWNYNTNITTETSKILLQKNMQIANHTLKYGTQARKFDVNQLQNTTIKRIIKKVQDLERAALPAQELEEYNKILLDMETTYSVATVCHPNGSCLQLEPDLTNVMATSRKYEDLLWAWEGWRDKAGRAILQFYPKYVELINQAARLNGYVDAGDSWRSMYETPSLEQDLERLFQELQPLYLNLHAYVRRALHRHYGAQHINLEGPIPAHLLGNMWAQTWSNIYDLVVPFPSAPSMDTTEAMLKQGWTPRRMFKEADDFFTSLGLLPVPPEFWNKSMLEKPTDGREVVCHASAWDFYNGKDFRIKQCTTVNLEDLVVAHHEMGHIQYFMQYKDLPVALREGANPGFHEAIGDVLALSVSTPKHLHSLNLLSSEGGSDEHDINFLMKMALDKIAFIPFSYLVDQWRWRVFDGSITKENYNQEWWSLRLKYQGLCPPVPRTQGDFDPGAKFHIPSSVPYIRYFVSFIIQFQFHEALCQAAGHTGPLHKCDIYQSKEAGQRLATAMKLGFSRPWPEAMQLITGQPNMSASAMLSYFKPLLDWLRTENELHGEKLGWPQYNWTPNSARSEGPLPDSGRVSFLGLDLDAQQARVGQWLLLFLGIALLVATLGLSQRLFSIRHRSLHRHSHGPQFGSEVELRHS

What follows are molecules tested against angiotensin I converting enzyme (ACE) (Homo sapiens, UniProt P12821). Settings: primary amine or captopril concentration equal to 50 μM; chromatographic peaks collected from trypsic hydrolysate of αS2 casein, tested twice.

Row | Inhibition (%) | SMILES
1 | 86.0^d % | CC(C)C[C@H](NC(=O)[C@H](Cc1ccc(O)cc1)NC(=O)[C@H](CCC(N)=O)NC(=O)[C@@H]1CCCN1C(=O)[C@@H](N)Cc1ccccc1)C(=O)N[C@@H](CCC(N)=O)C(=O)N[C@@H](Cc1ccc(O)cc1)C(=O)O [CNαS2-(f92-98), Phe-Pro-Gln-Tyr-Leu-Gln-Tyr] (H-FPQYLQY-OH; N-terminus and C-terminus assumed)
2 | 82.7% | CC(C)C[C@H](NC(=O)[C@H](C)NC(=O)[C@@H](N)Cc1ccccc1)C(=O)N1CCC[C@H]1C(=O)N[C@@H](CCC(N)=O)C(=O)N[C@@H](Cc1ccc(O)cc1)C(=O)O [CNαS2-(f174-179), Phe-Ala-Leu-Pro-Gln-Tyr] (H-FALPQY-OH; N-terminus and C-terminus assumed)
3 | 86.0^d % | CC(C)C[C@H](NC(=O)[C@H](Cc1ccc(O)cc1)NC(=O)[C@H](CCC(N)=O)NC(=O)[C@@H]1CCCN1C(=O)[C@H](CC(C)C)NC(=O)[C@H](C)NC(=O)[C@@H](N)Cc1ccccc1)C(=O)N[C@@H](CCCCN)C(=O)O [CNαS2-(f174-181)] (H-FALPQYLK-OH; N-terminus and C-terminus assumed)
4 | 70.2% | CC(C)[C@H](NC(=O)[C@@H](N)[C@@H](C)O)C(=O)N[C@@H](Cc1ccc(O)cc1)C(=O)O [CNαS2-(f182-184), Thr-Val-Tyr] (H-Thr-Val-Tyr-OH; N-terminus and C-terminus assumed)
